No constants are given. Whether binding was seen depends on the method and setting. In cells and extracts the contact can be indirect. Some entries that bind do so weakly or less than the wild type. Sequences can lack the tags named with a protein.
Experiments:
Assay in all cases: co-IP; anti-myc antibody on protein G beads; lysate of mitotic HeLa Kyoto cells (RO3306 washout, shake-off) transfected with Myc-Borealin constructs; 50 mM Tris pH 7.4, 400 mM NaCl, 0.5% IGEPAL, 0.1% deoxycholate; blots for Survivin, INCENP, Aurora B
Myc-Borealin 10-end = target: T1, Myc-Borealin 10-end (UniProt Q53HL2)
T1 sequence: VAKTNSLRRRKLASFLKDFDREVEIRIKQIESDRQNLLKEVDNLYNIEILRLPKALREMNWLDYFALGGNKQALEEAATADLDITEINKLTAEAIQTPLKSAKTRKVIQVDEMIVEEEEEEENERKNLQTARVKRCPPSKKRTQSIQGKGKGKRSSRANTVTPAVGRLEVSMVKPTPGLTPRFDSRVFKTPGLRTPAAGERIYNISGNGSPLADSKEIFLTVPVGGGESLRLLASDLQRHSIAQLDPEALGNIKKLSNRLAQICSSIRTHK

Amino acid sequences for entries named in this document (tags omitted).
UniProt Q96GD4: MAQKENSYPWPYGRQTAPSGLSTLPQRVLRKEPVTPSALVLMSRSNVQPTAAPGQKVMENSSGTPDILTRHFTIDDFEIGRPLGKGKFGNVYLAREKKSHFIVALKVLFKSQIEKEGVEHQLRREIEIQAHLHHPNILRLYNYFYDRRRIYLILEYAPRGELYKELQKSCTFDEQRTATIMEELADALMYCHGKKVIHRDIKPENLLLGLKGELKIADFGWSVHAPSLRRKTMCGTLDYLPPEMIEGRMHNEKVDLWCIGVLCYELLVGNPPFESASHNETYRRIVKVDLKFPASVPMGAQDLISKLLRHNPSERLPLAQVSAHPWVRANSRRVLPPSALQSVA

Myc-Borealin Δloop = target: T2, Myc-Borealin Δloop (UniProt Q53HL2)
T2 sequence: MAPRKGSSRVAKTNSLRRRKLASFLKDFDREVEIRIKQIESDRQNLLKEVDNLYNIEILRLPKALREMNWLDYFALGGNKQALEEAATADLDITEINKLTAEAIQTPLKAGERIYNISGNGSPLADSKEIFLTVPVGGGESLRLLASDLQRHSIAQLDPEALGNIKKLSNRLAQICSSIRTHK

Myc-Borealin 10-221 = target: T3, Myc-Borealin 10-221 (UniProt Q53HL2)
T3 sequence: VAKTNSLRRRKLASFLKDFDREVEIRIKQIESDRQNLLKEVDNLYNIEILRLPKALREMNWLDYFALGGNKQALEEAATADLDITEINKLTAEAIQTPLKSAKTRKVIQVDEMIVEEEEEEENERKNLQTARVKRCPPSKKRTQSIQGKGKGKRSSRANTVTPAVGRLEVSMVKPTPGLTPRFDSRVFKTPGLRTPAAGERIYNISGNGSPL

Measured: binding

Aurora B kinase (endogenous, HeLa) (from UniProt Q96GD4 1-344) (enzyme)
binds: all assays above
